Source: PubChem BioAssay AID330 (DTP/NCI, 2004)
The list is a part of this screen's results and no random one: it gathers tests that were run many times, whatever their T/C, doses with no T/C, and many T/C values between a quarter and a half above the control. Other doses and runs of a compound stand elsewhere. T/C gives the treated animals as a percentage of the vehicle group. Some doses have a count of surviving animals in place of a T/C: the source holds a T/C of zero for them, seemingly a mark for toxic or unscored doses. Some doses without a T/C left all or most animals alive at the check, yet need not have been tolerated: survival well below the control is almost never listed, so the zero probably covers shortened survival too. Counts of survivors are from the toxicity check (mostly the fifth day) where no day follows; animals may have died later. Schedules are NCI's codes, taken here to give the interval after Q, in days (D) or hours (H), and the number of doses after X. Some doses were run more than once; their values stand side by side, smallest first. For survival time, this PubChem deposit counts one and a half times the control or more as active, and values a quarter to a half above the control carry no call in these data; other NCI protocols may use other cut-offs. Some T/C values are followed by the survivors on the day toxicity was checked, most often the fifth; where none is given, no animal had died by that day.

System: P388 leukemia ip, CD2F1 mice, survival T/C
Assay: NCI In Vivo Anticancer Drug Screen. Data for tumor model P388 Leukemia (intraperitoneal) in CD2F1 (CDF1) mice
Conditions: T/C endpoint: median survival time, higher T/C = longer survival
[1] = dose: 200.0 mg/kg/injection, schedule: Q01DX009 (ip), vehicle: Klucel (hydroxypropylcellulose) (HPC)
[2] = dose: 100.0 mg/kg/injection, schedule: Q01DX009 (ip), vehicle: Klucel (hydroxypropylcellulose) (HPC)
[3] = dose: 50.0 mg/kg/injection, schedule: Q01DX009 (ip), vehicle: saline
[4] = dose: 100.0 mg/kg/injection, schedule: Q01DX009 (ip), vehicle: saline
[5] = dose: 50.0 mg/kg/injection, schedule: Q01DX009 (ip), vehicle: saline with Tween-80
[6] = dose: 200.0 mg/kg/injection, schedule: Q01DX001 (ip), vehicle: saline with Tween-80
[7] = dose: 400.0 mg/kg/injection, schedule: Q01DX001 (ip), vehicle: saline with Tween-80
[8] = dose: 200.0 mg/kg/injection, schedule: Q01DX009 (ip), vehicle: saline with Tween-80

## CC(=O)OCC1=CC2OC(=O)C3=COC(OC4OC(CO)C(O)C(O)C4O)C1C32 (stereo unspecified)
[1]
  survivor count: 6 of 6

## ClCCN(CCCl)c1ccc(/C=N/Nc2c3c(nc4ccccc24)CCCC3)cc1
dose: 3.12 mg/kg/injection, schedule: Q01DX009 (ip), vehicle: Klucel (hydroxypropylcellulose) (HPC)
  survivor count: 5 of 5
dose: 6.25 mg/kg/injection, schedule: Q01DX009 (ip), vehicle: Klucel (hydroxypropylcellulose) (HPC)
  survivor count: 4 of 4 and 6 of 6
dose: 25.0 mg/kg/injection, schedule: Q01DX009 (ip), vehicle: Klucel (hydroxypropylcellulose) (HPC)
  survivor count: 5 of 6
dose: 50.0 mg/kg/injection, schedule: Q01DX009 (ip), vehicle: Klucel (hydroxypropylcellulose) (HPC)
  survivor count: 0 of 6
[2]
  survivor count: 0 of 6
[1]
  survivor count: 0 of 6

## CCCCC(NC(=O)CC)C(=O)O (stereo unspecified)
[3]
  survivor count: 6 of 6
[4]
  survivor count: 6 of 6

## CN(C=O)C(C(=O)Nc1cccc2c(OC(=O)C(N(C)C=O)(N(C)C=O)N(C)C=O)c(N=Nc3ccc(S(=O)(=O)Nc4nccs4)cc3)cc(N=Nc3ccc(S(=O)(=O)Nc4nccs4)cc3)c12)(N(C)C=O)N(C)C=O (tested in a mixture with another compound)
dose: 50.0 mg/kg/injection, schedule: Q01DX005 (ip), vehicle: saline with Tween-80
  T/C: 132 % of control
dose: 100.0 mg/kg/injection, schedule: Q01DX005 (ip), vehicle: saline with Tween-80
  T/C: 135 % of control
dose: 200.0 mg/kg/injection, schedule: Q01DX005 (ip), vehicle: saline with Tween-80
  T/C: 142 % of control
dose: 400.0 mg/kg/injection, schedule: Q01DX005 (ip), vehicle: saline with Tween-80, evaluated on day 20
  T/C: 149 % of control [4 of 5 alive]
dose: 400.0 mg/kg/injection, schedule: Q01DX005 (ip), vehicle: saline with Tween-80, evaluated on day 30
  T/C: 126 % of control

## COc1cccc2c1C(=O)c1c(O)c3c(c(O)c1C2=O)C[C@@](O)(c1csc(-c2ccccc2)n1)C[C@@H]3OC1CC(N)C(O)C(C)O1 (stereo partly specified)
dose: 0.78 mg/kg/injection, schedule: Q01DX009 (ip), vehicle: water
  T/C: 129 % of control
dose: 1.56 mg/kg/injection, schedule: Q01DX009 (ip), vehicle: water
  T/C: 129 and 133 % of control
dose: 3.13 mg/kg/injection, schedule: Q01DX009 (ip), vehicle: water
  T/C: 139 and 140 % of control
dose: 6.25 mg/kg/injection, schedule: Q01DX009 (ip), vehicle: water
  T/C: 142 and 144 % of control
dose: 12.5 mg/kg/injection, schedule: Q01DX009 (ip), vehicle: water
  survivor count: 6 of 6
dose: 25.0 mg/kg/injection, schedule: Q01DX009 (ip), vehicle: water
  survivor count: 0 of 6, 4 of 6, 5 of 6

## Nc1nc(=S)c2n[nH]nc2[nH]1
dose: 25.0 mg/kg/injection, schedule: Q01DX009 (ip), vehicle: saline with Tween-80
  T/C: 145 % of control
[5]
  survivor count: 2 of 6
dose: 100.0 mg/kg/injection, schedule: Q01DX009 (ip), vehicle: saline with Tween-80
  survivor count: 5 of 6

## CSc1nc(SC)c2c(CN=[N+]=[N-])c(Br)n(Cc3ccccc3)c2n1
dose: 12.5 mg/kg/injection, schedule: Q01DX001 (ip), vehicle: saline with Tween-80
  survivor count: 6 of 6
dose: 25.0 mg/kg/injection, schedule: Q01DX001 (ip), vehicle: saline with Tween-80
  survivor count: 6 of 6
dose: 50.0 mg/kg/injection, schedule: Q01DX001 (ip), vehicle: saline with Tween-80
  survivor count: 6 of 6
dose: 100.0 mg/kg/injection, schedule: Q01DX001 (ip), vehicle: saline with Tween-80
  survivor count: 6 of 6
[6]
  survivor count: 6 of 6
[7]
  survivor count: 6 of 6

## O=C1C(N2CCCCC2)=C(N2CC2)C(=O)C(N2CCCCC2)=C1N1CC1
dose: 5.0 mg/kg/injection, schedule: Q01DX009 (ip), vehicle: saline
  T/C: 144 and 146 % of control
dose: 10.0 mg/kg/injection, schedule: Q01DX009 (ip), vehicle: saline
  survivor count: 6 of 6
dose: 20.0 mg/kg/injection, schedule: Q01DX009 (ip), vehicle: saline
  survivor count: 2 of 6

## CCCCCCCCCCCCCCCCCC(=O)[O][Pb]([CH3])([CH3])[CH3]
dose: 10.0 mg/kg/injection, schedule: Q01DX009 (ip), vehicle: Klucel (hydroxypropylcellulose) (HPC)
  survivor count: 5 of 6
dose: 20.0 mg/kg/injection, schedule: Q01DX009 (ip), vehicle: Klucel (hydroxypropylcellulose) (HPC)
  survivor count: 4 of 6

## COc1ccc(CN2CCc3cc(OC)c(O)cc3C2)cc1O
[7]
  survivor count: 0 of 6

## CCCCCn1c(C)cc(/C=C\c2ccc3cc(C)ccc3[n+]2C)c1C
dose: 0.5 mg/kg/injection, schedule: Q01DX009 (ip), vehicle: saline
  T/C: 133 % of control
dose: 1.0 mg/kg/injection, schedule: Q01DX009 (ip), vehicle: saline
  survivor count: 1 of 6
dose: 2.0 mg/kg/injection, schedule: Q01DX009 (ip), vehicle: saline
  survivor count: 1 of 6
dose: 6.25 mg/kg/injection, schedule: Q04DX003 (ip), vehicle: saline
  survivor count: 4 of 6
dose: 12.5 mg/kg/injection, schedule: Q04DX003 (ip), vehicle: saline
  survivor count: 1 of 6
dose: 25.0 mg/kg/injection, schedule: Q04DX003 (ip), vehicle: saline
  survivor count: 0 of 6

## O=C1NCC(Br)C(=O)N1 (stereo unspecified)
dose: 50.0 mg/kg/injection, schedule: Q01DX009 (ip), vehicle: other
  T/C: 127 % of control
dose: 100.0 mg/kg/injection, schedule: Q01DX009 (ip), vehicle: other
  T/C: 129 % of control
dose: 200.0 mg/kg/injection, schedule: Q01DX009 (ip), vehicle: other
  T/C: 137 % of control
dose: 200.0 mg/kg/injection, schedule: Q01DX009 (ip), vehicle: saline + Tween-80 + alcohol
  T/C: 128 % of control
dose: 400.0 mg/kg/injection, schedule: Q01DX009 (ip), vehicle: saline + Tween-80 + alcohol
  survivor count: 5 of 6

## CCN1CCN(CCCl)C1=O
[3]
  T/C: 144 % of control
[4]
  T/C: 134 % of control

## NCCSSc1ccc([N+](=O)[O-])cc1
dose: 50.0 mg/kg/injection, schedule: Q04DX002 (ip), vehicle: Klucel (hydroxypropylcellulose) (HPC)
  survivor count: 4 of 5
dose: 100.0 mg/kg/injection, schedule: Q04DX002 (ip), vehicle: Klucel (hydroxypropylcellulose) (HPC)
  survivor count: 1 of 5
dose: 200.0 mg/kg/injection, schedule: Q04DX002 (ip), vehicle: Klucel (hydroxypropylcellulose) (HPC)
  survivor count: 0 of 5
dose: 400.0 mg/kg/injection, schedule: Q04DX002 (ip), vehicle: Klucel (hydroxypropylcellulose) (HPC)
  survivor count: 0 of 5

## COC1/C=C/OC2(C)Oc3c(C)c(O)c4c(O)c(c(/C=N/N5C(C)CN(Cc6ccccc6C#N)CC5C)c(O)c4c3C2=O)NC(=O)/C(C)=C\C=C\C(C)C(O)C(C)C(O)C(C)C(OC(C)=O)C1C (stereo unspecified)
[5]
  T/C: 125 % of control
[8]
  survivor count: 1 of 6

## CCCCN(CCC#N)c1ccc(/C=C/c2ccnc3ccccc23)cc1
[2]
  survivor count: 6 of 6
[1]
  survivor count: 0 of 6

## CC1COS(=O)(=O)CS(=O)(=O)O1 (stereo unspecified)
dose: 120.0 mg/kg/injection, schedule: Q01DX005 (ip), vehicle: saline with Tween-80
  T/C: 125 % of control
dose: 240.0 mg/kg/injection, schedule: Q01DX005 (ip), vehicle: saline with Tween-80
  survivor count: 1 of 6

## Nc1cnccc1Nc1ccncc1
[6]
  survivor count: 3 of 6

## Cc1ccc2cccc(OC(=O)Nc3ccc(Cl)c(Cl)c3)c2n1
[8]
  survivor count: 5 of 6

## CCCCCCCCCCCCCOC(=O)CC(C(=O)OCCCCCCCCCCCCC)S(=O)(=O)O (stereo unspecified)
[1]
  survivor count: 0 of 6
